Some of the results follow.
Columns and labels:
Assay in all cases: log2 fold change, soluble protein after heating vs DMSO (PISA); higher = thermal stabilisation; K562 lysate, 10 uM; active = over 0.2 and 3.5 SD of the protein, either way, in both replicates (recomputed)
vemurafenib = compound: CCCS(=O)(=O)Nc1ccc(F)c(C(=O)c2c[nH]c3ncc(-c4ccc(Cl)cc4)cc23)c1F [vemurafenib]
Summary of the method: (§1)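 The values are log-two fold changes in thermal stability compared with solvent controls and come from duplicates. They were obtained by TMTpro 16plex LC-MS/MS, with channel sums equalised, on the supernatant after 21,000xg for 90 min. That supernatant came from crude K562 extract at 1 mg/mL protein treated with 10 μM compound for 30 min, heated for 3 min across 48°C-58°C, pooled and brought to 0.5% NP-40 at 4°C.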

By UniProt entry, the sequences of proteins in these tests, tags left out. Where a name states a change or a piece, a line headed by the entry shows the natural chain unless it says otherwise.
UniProt P35580, whole entry, looked up: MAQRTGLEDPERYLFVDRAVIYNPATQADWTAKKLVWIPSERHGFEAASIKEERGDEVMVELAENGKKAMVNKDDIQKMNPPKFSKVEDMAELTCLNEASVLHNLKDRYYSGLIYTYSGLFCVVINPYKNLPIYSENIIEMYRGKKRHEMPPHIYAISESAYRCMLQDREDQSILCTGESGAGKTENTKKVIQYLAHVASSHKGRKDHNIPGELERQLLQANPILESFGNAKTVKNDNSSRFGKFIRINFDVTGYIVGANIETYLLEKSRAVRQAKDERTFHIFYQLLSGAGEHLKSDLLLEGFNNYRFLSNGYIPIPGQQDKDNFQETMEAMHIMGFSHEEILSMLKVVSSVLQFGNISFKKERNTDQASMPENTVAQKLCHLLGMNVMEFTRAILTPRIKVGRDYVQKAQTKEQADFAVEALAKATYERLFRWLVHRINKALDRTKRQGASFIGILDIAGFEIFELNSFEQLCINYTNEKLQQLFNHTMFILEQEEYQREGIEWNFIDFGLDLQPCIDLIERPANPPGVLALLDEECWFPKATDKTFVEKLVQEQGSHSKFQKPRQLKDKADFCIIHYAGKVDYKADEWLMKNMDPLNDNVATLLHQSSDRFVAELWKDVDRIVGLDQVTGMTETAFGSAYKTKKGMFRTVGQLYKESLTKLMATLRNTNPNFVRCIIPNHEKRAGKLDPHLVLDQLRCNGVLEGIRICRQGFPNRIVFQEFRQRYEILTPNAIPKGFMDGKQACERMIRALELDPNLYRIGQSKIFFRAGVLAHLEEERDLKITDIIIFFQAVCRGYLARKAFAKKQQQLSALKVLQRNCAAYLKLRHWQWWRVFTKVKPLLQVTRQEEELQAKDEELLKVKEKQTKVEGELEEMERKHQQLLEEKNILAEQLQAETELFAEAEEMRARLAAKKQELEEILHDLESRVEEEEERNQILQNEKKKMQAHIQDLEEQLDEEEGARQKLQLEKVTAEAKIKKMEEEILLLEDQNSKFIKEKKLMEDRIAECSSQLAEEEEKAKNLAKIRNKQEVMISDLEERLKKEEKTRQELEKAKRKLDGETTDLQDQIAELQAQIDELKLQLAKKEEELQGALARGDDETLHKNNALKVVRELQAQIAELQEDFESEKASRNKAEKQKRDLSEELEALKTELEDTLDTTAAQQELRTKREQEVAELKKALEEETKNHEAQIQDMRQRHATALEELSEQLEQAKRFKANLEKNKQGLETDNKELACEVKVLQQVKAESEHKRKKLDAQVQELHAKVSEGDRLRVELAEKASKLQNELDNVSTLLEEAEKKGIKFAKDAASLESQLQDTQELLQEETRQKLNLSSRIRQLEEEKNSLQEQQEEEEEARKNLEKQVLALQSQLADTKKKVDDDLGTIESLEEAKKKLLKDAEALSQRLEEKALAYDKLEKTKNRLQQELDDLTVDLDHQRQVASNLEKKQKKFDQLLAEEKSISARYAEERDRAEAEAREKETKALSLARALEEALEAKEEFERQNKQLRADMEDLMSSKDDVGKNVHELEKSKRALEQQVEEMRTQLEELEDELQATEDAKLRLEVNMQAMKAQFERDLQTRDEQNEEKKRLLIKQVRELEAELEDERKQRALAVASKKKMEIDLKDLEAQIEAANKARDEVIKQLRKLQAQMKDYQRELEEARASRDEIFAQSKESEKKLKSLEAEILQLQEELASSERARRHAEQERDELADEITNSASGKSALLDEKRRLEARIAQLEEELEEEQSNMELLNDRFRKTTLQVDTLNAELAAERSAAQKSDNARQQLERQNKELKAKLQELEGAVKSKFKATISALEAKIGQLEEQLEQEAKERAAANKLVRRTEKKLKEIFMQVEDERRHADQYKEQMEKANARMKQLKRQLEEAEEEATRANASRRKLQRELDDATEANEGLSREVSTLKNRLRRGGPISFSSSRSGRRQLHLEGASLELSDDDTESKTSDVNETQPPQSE
UniProt Q8NCW5: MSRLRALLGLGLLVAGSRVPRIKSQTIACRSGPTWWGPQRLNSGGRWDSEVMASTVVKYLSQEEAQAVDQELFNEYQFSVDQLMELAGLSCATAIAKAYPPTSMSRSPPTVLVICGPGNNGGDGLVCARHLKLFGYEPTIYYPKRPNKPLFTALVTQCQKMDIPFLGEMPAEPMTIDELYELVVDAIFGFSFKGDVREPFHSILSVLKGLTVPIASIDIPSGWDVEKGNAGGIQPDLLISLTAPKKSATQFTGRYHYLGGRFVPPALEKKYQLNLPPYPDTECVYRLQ
UniProt P61599, whole entry, looked up: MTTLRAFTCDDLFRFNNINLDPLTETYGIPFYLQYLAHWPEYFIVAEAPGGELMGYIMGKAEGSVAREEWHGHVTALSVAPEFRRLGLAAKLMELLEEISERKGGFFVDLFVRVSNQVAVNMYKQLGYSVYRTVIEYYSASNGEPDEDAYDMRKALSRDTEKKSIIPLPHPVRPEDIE
UniProt Q8IW45: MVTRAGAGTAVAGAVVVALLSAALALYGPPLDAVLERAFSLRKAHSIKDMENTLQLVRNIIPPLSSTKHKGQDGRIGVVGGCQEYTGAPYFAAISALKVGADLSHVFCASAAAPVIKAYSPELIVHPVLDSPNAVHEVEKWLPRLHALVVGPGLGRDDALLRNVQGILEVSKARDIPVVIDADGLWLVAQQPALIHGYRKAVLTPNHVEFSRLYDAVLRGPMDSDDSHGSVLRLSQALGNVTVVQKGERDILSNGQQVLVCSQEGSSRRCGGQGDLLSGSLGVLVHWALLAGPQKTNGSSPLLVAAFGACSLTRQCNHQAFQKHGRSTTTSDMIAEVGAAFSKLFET
UniProt Q5VVJ2: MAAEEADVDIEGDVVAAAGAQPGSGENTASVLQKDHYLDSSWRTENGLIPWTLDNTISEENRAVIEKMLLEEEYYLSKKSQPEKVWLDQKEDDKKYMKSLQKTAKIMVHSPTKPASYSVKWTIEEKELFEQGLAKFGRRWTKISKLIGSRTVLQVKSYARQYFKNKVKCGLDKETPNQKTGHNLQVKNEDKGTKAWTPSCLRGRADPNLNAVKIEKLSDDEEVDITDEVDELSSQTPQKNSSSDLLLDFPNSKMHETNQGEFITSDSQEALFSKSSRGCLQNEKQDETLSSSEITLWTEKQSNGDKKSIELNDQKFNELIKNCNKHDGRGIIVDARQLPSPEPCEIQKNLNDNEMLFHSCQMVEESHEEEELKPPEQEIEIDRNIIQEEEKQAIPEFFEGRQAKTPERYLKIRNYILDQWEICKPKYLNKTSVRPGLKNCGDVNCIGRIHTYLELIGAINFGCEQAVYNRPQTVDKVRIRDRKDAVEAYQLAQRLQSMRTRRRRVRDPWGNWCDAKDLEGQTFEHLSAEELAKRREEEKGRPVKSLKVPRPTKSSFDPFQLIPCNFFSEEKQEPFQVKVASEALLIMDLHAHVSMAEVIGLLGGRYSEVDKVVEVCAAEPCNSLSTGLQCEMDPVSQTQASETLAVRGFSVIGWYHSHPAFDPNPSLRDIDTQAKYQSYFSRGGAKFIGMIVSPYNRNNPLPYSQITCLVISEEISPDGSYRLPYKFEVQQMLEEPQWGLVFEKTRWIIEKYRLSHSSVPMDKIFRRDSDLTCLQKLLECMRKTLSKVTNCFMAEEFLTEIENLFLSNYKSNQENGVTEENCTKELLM
UniProt Q96NT1: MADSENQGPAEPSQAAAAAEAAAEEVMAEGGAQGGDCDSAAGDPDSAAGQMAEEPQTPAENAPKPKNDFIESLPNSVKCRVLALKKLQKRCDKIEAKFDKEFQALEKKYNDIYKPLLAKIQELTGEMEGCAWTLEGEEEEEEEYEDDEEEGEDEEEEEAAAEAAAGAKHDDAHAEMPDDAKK
UniProt Q68D85: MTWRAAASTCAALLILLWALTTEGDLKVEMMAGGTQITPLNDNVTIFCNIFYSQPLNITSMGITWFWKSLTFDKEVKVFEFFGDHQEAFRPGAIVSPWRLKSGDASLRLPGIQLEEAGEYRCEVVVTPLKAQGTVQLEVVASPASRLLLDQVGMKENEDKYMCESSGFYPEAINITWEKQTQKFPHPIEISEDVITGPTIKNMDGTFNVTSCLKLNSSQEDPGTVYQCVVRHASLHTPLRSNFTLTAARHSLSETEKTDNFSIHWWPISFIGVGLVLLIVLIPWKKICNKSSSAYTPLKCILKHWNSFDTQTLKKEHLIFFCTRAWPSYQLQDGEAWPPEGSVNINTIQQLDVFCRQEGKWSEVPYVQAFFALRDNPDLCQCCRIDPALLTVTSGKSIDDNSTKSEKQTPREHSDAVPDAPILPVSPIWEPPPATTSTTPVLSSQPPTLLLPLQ
UniProt Q13772: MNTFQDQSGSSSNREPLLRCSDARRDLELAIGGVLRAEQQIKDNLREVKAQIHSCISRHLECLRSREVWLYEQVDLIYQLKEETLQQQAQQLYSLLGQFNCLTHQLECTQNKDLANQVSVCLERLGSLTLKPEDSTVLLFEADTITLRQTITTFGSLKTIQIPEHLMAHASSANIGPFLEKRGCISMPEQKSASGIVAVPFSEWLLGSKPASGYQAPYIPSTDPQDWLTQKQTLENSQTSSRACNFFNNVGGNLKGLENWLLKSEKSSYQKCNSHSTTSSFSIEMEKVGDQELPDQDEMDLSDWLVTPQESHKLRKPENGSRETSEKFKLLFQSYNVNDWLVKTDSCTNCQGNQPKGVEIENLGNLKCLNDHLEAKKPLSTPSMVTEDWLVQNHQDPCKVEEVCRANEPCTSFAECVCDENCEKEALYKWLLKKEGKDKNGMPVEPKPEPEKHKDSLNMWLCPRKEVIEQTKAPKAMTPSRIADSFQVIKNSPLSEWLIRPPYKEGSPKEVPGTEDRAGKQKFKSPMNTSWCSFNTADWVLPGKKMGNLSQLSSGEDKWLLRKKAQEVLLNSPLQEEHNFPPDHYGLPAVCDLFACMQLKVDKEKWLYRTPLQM
UniProt Q15021, whole entry, looked up: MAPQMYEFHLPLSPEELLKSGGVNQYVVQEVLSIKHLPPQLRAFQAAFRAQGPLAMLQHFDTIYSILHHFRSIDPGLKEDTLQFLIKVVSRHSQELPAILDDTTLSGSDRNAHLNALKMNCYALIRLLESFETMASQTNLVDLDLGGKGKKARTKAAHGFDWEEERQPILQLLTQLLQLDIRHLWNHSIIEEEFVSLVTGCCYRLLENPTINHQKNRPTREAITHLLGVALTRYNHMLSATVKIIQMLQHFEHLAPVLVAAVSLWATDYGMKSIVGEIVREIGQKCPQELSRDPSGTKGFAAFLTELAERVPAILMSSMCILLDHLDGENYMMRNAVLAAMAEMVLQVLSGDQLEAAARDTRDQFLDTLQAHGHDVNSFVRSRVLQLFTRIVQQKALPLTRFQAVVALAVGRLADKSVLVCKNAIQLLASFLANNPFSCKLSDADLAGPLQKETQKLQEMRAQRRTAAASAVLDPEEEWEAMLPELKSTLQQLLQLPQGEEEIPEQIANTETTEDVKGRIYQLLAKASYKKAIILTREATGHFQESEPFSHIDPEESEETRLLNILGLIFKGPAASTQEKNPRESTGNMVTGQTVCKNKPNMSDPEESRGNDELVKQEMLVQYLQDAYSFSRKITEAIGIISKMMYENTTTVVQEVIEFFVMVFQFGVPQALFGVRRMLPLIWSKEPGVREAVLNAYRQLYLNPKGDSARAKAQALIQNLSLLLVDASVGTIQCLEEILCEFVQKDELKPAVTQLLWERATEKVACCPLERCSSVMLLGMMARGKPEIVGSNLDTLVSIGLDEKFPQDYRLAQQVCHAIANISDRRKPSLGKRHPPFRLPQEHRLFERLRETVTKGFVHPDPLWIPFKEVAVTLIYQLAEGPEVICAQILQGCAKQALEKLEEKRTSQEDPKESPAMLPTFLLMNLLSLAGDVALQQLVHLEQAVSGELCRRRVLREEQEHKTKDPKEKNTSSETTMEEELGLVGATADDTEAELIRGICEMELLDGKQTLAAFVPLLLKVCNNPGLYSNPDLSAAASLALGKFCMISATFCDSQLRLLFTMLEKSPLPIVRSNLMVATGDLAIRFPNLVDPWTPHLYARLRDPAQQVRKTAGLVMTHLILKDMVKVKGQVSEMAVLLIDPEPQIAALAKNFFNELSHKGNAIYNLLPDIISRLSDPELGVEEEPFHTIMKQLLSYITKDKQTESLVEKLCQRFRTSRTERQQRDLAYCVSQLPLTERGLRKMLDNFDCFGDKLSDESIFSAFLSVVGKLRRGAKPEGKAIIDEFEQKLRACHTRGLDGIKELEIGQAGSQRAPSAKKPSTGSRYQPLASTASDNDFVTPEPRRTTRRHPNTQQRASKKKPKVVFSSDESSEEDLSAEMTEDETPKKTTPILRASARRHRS

[1] = compound: CCCS(=O)(=O)Nc1ccc(F)c(C(=O)c2c[nH]c3ncc(Cl)cc23)c1F
Summary of the method: as §1

barasertib = compound: CCN(CCCOc1ccc2c(Nc3cc(CC(=O)Nc4cccc(F)c4)[nH]n3)ncnc2c1)CCOP(=O)(O)O [barasertib]
Summary of the method: as §1

[2] = compound: CC[C@@H]1C(=O)N(C)c2cnc(Nc3ccc(C(=O)NC4CCN(C)CC4)cc3OC)nc2N1C1CCCC1
Summary of the method: as §1

volasertib = compound: CC[C@@H]1C(=O)N(C)c2cnc(Nc3ccc(C(=O)N[C@H]4CC[C@H](N5CCN(CC6CC6)CC5)CC4)cc3OC)nc2N1C(C)C [volasertib]
Summary of the method: as §1

[3] = compound: CCn1c(C(=O)N(C2CC2)C2CC2)cc2c3c(ncn3C)c(Nc3cc(C)n(C)n3)nc21
Summary of the method: as §1

[4] = compound: CCn1cc(-c2ccnc3[nH]c(-c4cccc(CN(C)C)c4)cc23)c(-c2ccc(NC(=O)N(C)C)cc2)n1
Summary of the method: as §1

[5] = compound: CN1CCC(CNc2ccc3ncc(-c4cccc(OC(F)(F)F)c4)n3n2)CC1
Summary of the method: as §1

saracatinib = compound: CN1CCN(CCOc2cc(OC3CCOCC3)c3c(Nc4c(Cl)ccc5c4OCO5)ncnc3c2)CC1 [saracatinib]
Summary of the method: as §1

sotrastaurin = compound: CN1CCN(c2nc(C3=C(c4c[nH]c5ccccc45)C(=O)NC3=O)c3ccccc3n2)CC1 [sotrastaurin]
Summary of the method: as §1

alvocidib = compound: CN1CC[C@H](c2c(O)cc(O)c3c(=O)cc(-c4ccccc4Cl)oc23)[C@H](O)C1 [alvocidib]
Summary of the method: as §1

Tubastatin A = compound: CN1CCc2c(c3ccccc3n2Cc2ccc(C(=O)NO)cc2)C1 [Tubastatin A]
Summary of the method: as §1

[6] = compound: CNC(=O)C1=CC=CC=C1NC2=NC(=NC=C2Cl)NC3=C(C=C(C=C3)N4CCOCC4)OC
Summary of the method: as §1

defactinib = compound: CNC(=O)c1ccc(Nc2ncc(C(F)(F)F)c(NCc3nccnc3N(C)S(C)(=O)=O)n2)cc1 [defactinib]
Summary of the method: as §1

[7] = compound: CNc1nc(-c2ccc3c(N)n[nH]c3c2)cc(N2C[C@@H](C(=O)NC3CCCCC3)CC[C@H]2C)n1
Summary of the method: as §1

encorafenib = compound: COC(=O)N[C@@H](C)CNc1nccc(-c2cn(C(C)C)nc2-c2cc(Cl)cc(NS(C)(=O)=O)c2F)n1 [encorafenib]
Summary of the method: as §1

[8] = compound: COC(=O)[C@H](CCSC)NC(=O)C1=C(C=C(C=C1)NC[C@H](CS)N)C2=CC=CC=C2
Summary of the method: as §1

alisertib = compound: COc1cc(Nc2ncc3c(n2)-c2ccc(Cl)cc2C(c2c(F)cccc2OC)=NC3)ccc1C(=O)O [alisertib]
Summary of the method: as §1

[9] = compound: COc1cc2nc(-c3cc(F)ccc3O)nc(N[C@@H]3CNC[C@H]3C(C)(C)O)c2cc1OC
Summary of the method: as §1

gefitinib = compound: COc1cc2ncnc(Nc3ccc(F)c(Cl)c3)c2cc1OCCCN1CCOCC1 [gefitinib]
Summary of the method: as §1

Measured: log2 fold change

MYH10 isoform 3 (UniProt P35580)
inactive: vemurafenib 0.007 | [1] 0.063 | barasertib -0.003 | [2] 0.005 | volasertib -0.034 | [3] -0.019 | [4] 0.019 | [5] 0.005 | saracatinib 0.011 | sotrastaurin 0.01 | alvocidib 0.002 | Tubastatin A 0.001 | [6] -0.007 | defactinib -0.019 | [7] 0.011 | encorafenib -0.008 | [8] -0.018 | alisertib -0.005 | [9] 0.025 | gefitinib -0.007

NAXE (UniProt Q8NCW5)
inactive: vemurafenib -0.007 | [1] -0.005 | barasertib 0.182 | [2] 0.053 | volasertib 0.042 | [3] 0.016 | [4] -0.009 | [5] -0.01 | saracatinib -0.003 | sotrastaurin -0.013 | alvocidib 0.038 | Tubastatin A 0.079 | [6] 0 | defactinib 0.06 | [7] 0.027 | encorafenib -0.007 | [8] -0.003 | alisertib -0.017 | [9] 0.001 | gefitinib -0.003

NAA20 (UniProt P61599)
inactive: vemurafenib 0.057 | [1] 0.027 | barasertib 0.133 | [2] -0.041 | volasertib -0.036 | [3] 0.017 | [4] 0.058 | [5] 0.001 | saracatinib 0.015 | sotrastaurin 0.008 | alvocidib 0.055 | Tubastatin A 0.002 | [6] 0.05 | defactinib 0.04 | [7] 0.004 | encorafenib 0.03 | [8] 0.103 | alisertib 0.005 | [9] 0.009 | gefitinib -0.099

NAXD (UniProt Q8IW45)
inactive: vemurafenib -0.029 | [1] 0.025 | barasertib 0.046 | [2] 0.11 | volasertib 0.04 | [3] -0.075 | [4] -0.04 | [5] 0.082 | saracatinib 0.027 | sotrastaurin 0.016 | alvocidib -0.047 | Tubastatin A 0.095 | [6] 0.017 | defactinib 0.082 | [7] 0.018 | encorafenib 0.008 | [8] -0.058 | alisertib -0.051 | [9] -0.045 | gefitinib -0.048

MYSM1 (UniProt Q5VVJ2)
inactive: vemurafenib -0.007 | [1] 0.04 | barasertib 0.042 | [2] -0.062 | volasertib -0.05 | [3] 0.018 | [4] -0.045 | [5] 0.039 | saracatinib -0.031 | sotrastaurin 0.043 | alvocidib -0.035 | Tubastatin A -0.007 | [6] 0.01 | defactinib 0.023 | [7] 0.073 | encorafenib 0.034 | [8] 0.074 | alisertib -0.045 | [9] 0.007 | gefitinib 0.058

NAP1L5 (UniProt Q96NT1)
inactive: vemurafenib -0.094 | [1] 0.005 | barasertib 0.037 | [2] 0.181 | volasertib -0.033 | [3] 0.052 | [5] -0.205 | saracatinib -0.15 | sotrastaurin 0.08 | alvocidib 0.161 | Tubastatin A -0.039 | [6] 0.008 | defactinib -0.032 | [7] -0.082 | encorafenib 0.01 | [8] -0.047 | alisertib 0.021 | [9] -0.039 | gefitinib 0.02
active: [4] 0.62

MYO6 isoform 6 (UniProt Q9UM54)
inactive: vemurafenib 0.01 | [1] 0.004 | barasertib 0.011 | [2] 0.039 | volasertib -0.056 | [3] 0.082 | [4] -0.047 | [5] -0.003 | saracatinib -0.15 | sotrastaurin 0.066 | alvocidib -0.011 | Tubastatin A -0.043 | [6] 0.033 | defactinib 0.032 | [7] 0.096 | encorafenib 0.027 | [8] -0.118 | alisertib -0.01 | [9] 0.02 | gefitinib 0.017

NCR3LG1 (UniProt Q68D85)
inactive: vemurafenib 0.045 | [1] -0.01 | barasertib 0 | [2] 0.066 | volasertib 0.045 | [3] -0.025 | [4] -0.067 | [5] 0.089 | saracatinib 0.017 | sotrastaurin 0.015 | alvocidib 0.044 | Tubastatin A 0.007 | [6] -0.034 | defactinib -0.051 | [7] -0.013 | encorafenib -0.041 | [8] -0.06 | alisertib -0.007 | [9] -0.021 | gefitinib 0.038

NBAS (UniProt A2RRP1)
inactive: vemurafenib 0.026 | [1] -0.027 | barasertib 0.117 | [2] -0.172 | volasertib -0.11 | [3] 0.057 | [4] -0.012 | [5] -0.036 | saracatinib 0.049 | sotrastaurin 0.032 | alvocidib 0.032 | Tubastatin A -0.161 | [6] 0.012 | defactinib 0 | [7] -0.017 | encorafenib 0.014 | [8] 0.069 | alisertib 0.048 | [9] 0.033 | gefitinib -0.042

Two entries picked at random from the list so far:
MYO6 isoform 6 (UniProt Q9UM54)
inactive: vemurafenib 0.01 | [1] 0.004 | barasertib 0.011 | [2] 0.039 | volasertib -0.056 | [3] 0.082 | [4] -0.047 | [5] -0.003 | saracatinib -0.15 | sotrastaurin 0.066 | alvocidib -0.011 | Tubastatin A -0.043 | [6] 0.033 | defactinib 0.032 | [7] 0.096 | encorafenib 0.027 | [8] -0.118 | alisertib -0.01 | [9] 0.02 | gefitinib 0.017

NBAS (UniProt A2RRP1)
inactive: vemurafenib 0.026 | [1] -0.027 | barasertib 0.117 | [2] -0.172 | volasertib -0.11 | [3] 0.057 | [4] -0.012 | [5] -0.036 | saracatinib 0.049 | sotrastaurin 0.032 | alvocidib 0.032 | Tubastatin A -0.161 | [6] 0.012 | defactinib 0 | [7] -0.017 | encorafenib 0.014 | [8] 0.069 | alisertib 0.048 | [9] 0.033 | gefitinib -0.042

Continued.

NCOA4 isoform 4 (UniProt Q13772)
inactive: vemurafenib -0.01 | [1] 0.089 | barasertib 0.054 | [2] -0.006 | volasertib -0.032 | [3] -0.074 | [4] 0.127 | [5] -0.075 | saracatinib 0.012 | sotrastaurin 0.045 | alvocidib -0.059 | Tubastatin A -0.136 | [6] -0.04 | defactinib 0.073 | [7] 0.034 | encorafenib 0.046 | [8] -0.009 | alisertib 0.083 | [9] -0.067 | gefitinib 0.051

MYO19 (UniProt Q96H55)
inactive: vemurafenib -0.088 | [1] 0.044 | barasertib -0.118 | [2] -0.101 | volasertib -0.134 | [3] 0.029 | [4] 0.008 | [5] -0.154 | saracatinib 0.154 | sotrastaurin -0.077 | alvocidib 0.162 | Tubastatin A -0.048 | [6] 0.046 | defactinib 0.115 | [7] 0.075 | encorafenib -0.034 | [8] 0.111 | alisertib 0.015 | [9] -0.011 | gefitinib -0.077

MYOM1 (UniProt P52179)
inactive: vemurafenib 0.015 | [1] -0.082 | barasertib 0.021 | [2] 0.049 | volasertib 0.123 | [3] -0.356 | [4] -0.185 | [5] 0.088 | saracatinib -0.086 | sotrastaurin -0.163 | alvocidib 0.039 | Tubastatin A -0.033 | [6] -0.092 | defactinib 0.194 | [7] 0.139 | encorafenib 0.065 | [8] -0.011 | alisertib 0.215 | [9] -0.06 | gefitinib 0.026

MYCBP2 (UniProt O75592)
inactive: vemurafenib -0.026 | [1] 0.036 | barasertib 0.037 | [2] 0.017 | volasertib -0.019 | [3] -0.01 | [4] -0.117 | [5] 0.083 | saracatinib 0.033 | sotrastaurin -0.029 | alvocidib -0.046 | Tubastatin A -0.098 | [6] 0.024 | defactinib 0.019 | [7] 0.003 | encorafenib 0.055 | [8] -0.015 | alisertib 0.007 | [9] 0.032 | gefitinib -0.004

NCOA1 (UniProt Q15788)
inactive: vemurafenib -0.033 | [1] 0.029 | barasertib 0.035 | [2] 0.031 | volasertib -0.017 | [3] 0.017 | [4] -0.034 | [5] -0.009 | saracatinib 0.023 | sotrastaurin 0.013 | alvocidib -0.01 | Tubastatin A -0.027 | [6] 0.043 | defactinib -0.076 | [7] 0.026 | encorafenib 0.075 | [8] 0.012 | alisertib -0.017 | [9] 0.011 | gefitinib -0.053

NAA40 (UniProt Q86UY6)
inactive: vemurafenib 0.029 | [1] -0.051 | barasertib -0.029 | [2] -0.098 | volasertib 0.005 | [3] -0.002 | [4] -0.088 | [5] -0.02 | saracatinib -0.062 | sotrastaurin 0.04 | alvocidib -0.041 | Tubastatin A -0.07 | [6] -0.008 | defactinib -0.079 | [7] -0.009 | encorafenib 0.045 | [8] 0.03 | alisertib -0.04 | [9] -0.089 | gefitinib 0.01

NCAPD2 (UniProt Q15021)
inactive: vemurafenib 0.025 | [1] 0.014 | barasertib 0.016 | [2] -0.027 | volasertib -0.057 | [3] 0.022 | [4] -0.037 | [5] -0.055 | saracatinib 0.006 | sotrastaurin 0.021 | alvocidib 0.007 | Tubastatin A -0.119 | [6] 0.013 | defactinib 0.002 | [7] -0.018 | encorafenib 0.013 | [8] 0.076 | alisertib 0.004 | [9] -0.005 | gefitinib -0.016

Source: the supplement of paper PMC10849652
